Laboratory results taken from patent publication US20220127350A1.
These are yes or no findings as the source states them, for the method shown. Binding calls can cover weak binding; strength is not graded here.

Columns and labels:
[1] = target: human IL-17A (human); experiment: competitive ELISA: biotinylated human IL-17A preincubated with the scFv, then binding to coated IL-17RA detected (blocked ligand: IL-17RA) [B]
[2] = target: human IL-17A (human); experiment: competition ELISA: scFv coated, biotinylated IL-17A blocked by unlabeled IL-17A

Row | binding [1] | binding [2] | Binder
1 | binds | binds | PRO571 (humanized anti-IL-17A scFv, CDR graft of 27-31-C04) (scFv) scFv: DIQMTQSPSSLSASVGDRVTITCQASESIYRYLSWYQQKPGKAPKLLIYLASTLTSGVPSRFSGSGSGTDFTLTISSLQPEDFATYYCQSNFGTASTTYYNTFGGGTKLTVLGGGGGSGGGGSGGGGSGGGGSEVQLVESGGGLVQPGGSLRLSCAASGFSFSGFYYMCWVRQAPGKGLEWIGCIDTGDGTTYYASWAKGRFTISRDNSKNTVYLQMNSLRAEDTAVYYCARDAAYGGYAYPAHGMDLWGQGTLVTVSS
2 | binds | binds | PRO592 (humanized anti-IL-17A scFv, STR graft of 27-31-C04) (scFv) scFv: DIQMTQSPSSLSASVGDRVTITCQASESIYRYLSWYQQKPGKAPKLLIYLASTLTSGVPSRFSGSGSGTDFTLTISSLQPEDFATYYCQSNFGTASTTYYNTFGGGTKLTVLGGGGGSGGGGSGGGGSGGGGSEVQLVESGGGLVQPGGSLTLSCAASGFSFSGFYYMCWVRQAPGKGLEWIGCIDTGDGTTYYASWAKGRFTISRDNSKNTVYLQMNSLRAEDTAVYYCARDAAYGGYAYPAHGMDLWGPGTLVTVSS
